# The list shows only some results of the screen, not a fair sample: it is rich in T/C values a quarter to a half above the control, in often repeated tests (any T/C) and in doses without a T/C. Further doses and runs are listed elsewhere. T/C: endpoint of the treated group in % of that of the vehicle group. Some entries give survivors of the animals treated and no T/C: the source files T/C as zero there, which appears to mark a toxic dose or a test without result, not a measured value. Some survivor counts are full or nearly so, which does not show that the dose was tolerated: the source hardly ever lists a survival T/C far under the control, and the zero likely stands for such cases as well. Counts of survivors are from the toxicity check (mostly the fifth day) where no day follows; animals may have died later. Schedule codes are those of the source, read here as Q, the interval in days (D) or hours (H), X, the number of doses. Some molecules as drawn cover several salts, stereoisomers or complexes of the source; a dose is that of the sample tested. For survival time, this PubChem deposit counts one and a half times the control or more as active, and values a quarter to a half above the control carry no call in these data; other NCI protocols may use other cut-offs.
# Test system: L1210 leukemia ip in BDF1 mice, survival T/C
# Experiment: NCI In Vivo Anticancer Drug Screen. Data for tumor model L1210 Leukemia (intraperitoneal) in B6D2F1 (BDF1) mice
# Conditions: T/C endpoint: mean survival time, higher T/C = longer survival
# [1] = dose: 200.0 mg/kg/injection, schedule: Q04DX003 (ip), vehicle: Klucel (hydroxypropylcellulose) (HPC)
# [2] = dose: 400.0 mg/kg/injection, schedule: Q04DX003 (ip), vehicle: Klucel (hydroxypropylcellulose) (HPC)
# [3] = dose: 100.0 mg/kg/injection, schedule: Q01DX001 (ip), vehicle: carboxymethylcellulose (CMC)
# [4] = dose: 400.0 mg/kg/injection, schedule: Q04DX002 (ip), vehicle: saline with Tween-80
# [5] = dose: 400.0 mg/kg/injection, schedule: Q01DX001 (ip), vehicle: saline
# [6] = dose: 75.0 mg/kg/injection, schedule: Q01DX001 (ip), vehicle: saline
# [7] = dose: 150.0 mg/kg/injection, schedule: Q01DX001 (ip), vehicle: saline
# [8] = dose: 300.0 mg/kg/injection, schedule: Q01DX001 (ip), vehicle: saline
# [9] = dose: 400.0 mg/kg/injection, schedule: Q01DX001 (ip), vehicle: carboxymethylcellulose (CMC)
# [10] = dose: 200.0 mg/kg/injection, schedule: Q04DX003 (ip), vehicle: saline with Tween-80
# [11] = dose: 400.0 mg/kg/injection, schedule: Q04DX003 (ip), vehicle: saline with Tween-80
# [12] = dose: 200.0 mg/kg/injection, schedule: Q04DX003 (sc), vehicle: olive oil, sesame oil, peanut oil
# [13] = dose: 50.0 mg/kg/injection, schedule: Q01DX009 (ip), vehicle: saline
# [14] = dose: 400.0 mg/kg/injection, schedule: Q04DX003 (ip), vehicle: saline
# [15] = dose: 200.0 mg/kg/injection, schedule: Q01DX001 (ip), vehicle: saline
# [16] = dose: 400.0 mg/kg/injection, schedule: Q01DX001 (ip), vehicle: Klucel (hydroxypropylcellulose) (HPC)
structure (smiles),measurement,setting,value
N#Cc1cn(C2OC(CO)C(O)C2O)c2ncnc([Se]Cc3ccc([N+](=O)[O-])cc3)c12 (stereo not drawn),survivor count,"dose: 100.0 mg/kg/injection, schedule: Q01DX005 (ip), vehicle: saline",0 of 6
same,survivor count,"dose: 200.0 mg/kg/injection, schedule: Q01DX005 (ip), vehicle: saline",0 of 6
Cc1ccc([N+](=O)[O-])cc1N=Nc1ccc(O)c(C(=O)O)c1,survivor count,[1],1 of 6
same,survivor count,[2],0 of 6
O=C(CN1CCCCC1)N1CCN(C(=O)CN2CCCCC2)CC1,T/C,[3],138 % of control
same,survivor count,[3],4 of 4
same,survivor count,"dose: 150.0 mg/kg/injection, schedule: Q01DX001 (ip), vehicle: carboxymethylcellulose (CMC)",3 of 4
CCCCN(CCCC)/N=N/c1nc[nH]c1C(=O)OC,survivor count,"dose: 400.0 mg/kg/injection, schedule: Q01DX001 (ip), vehicle: other",2 of 4
COc1ccc(C(O)c2c(CN3CCCCC3)c3ccccc3n2C)cc1 (stereo not drawn),survivor count,[4],3 of 3
COC1=C(N)C(=O)C(OC)=C(N)C1=O,survivor count,[5],0 of 4
NC1CCCN(Cc2ccccc2)C1 (stereo not drawn),survivor count,"dose: 300.0 mg/kg/injection, schedule: Q04DX003 (ip), vehicle: saline",3 of 6
IP(c1ccccc1)(c1ccccc1)(c1ccccc1)N1C2CCCCC21 (stereo not drawn),survivor count,"dose: 2.5 mg/kg/injection, schedule: Q04DX003 (ip), vehicle: saline",1 of 6
same,survivor count,"dose: 3.74 mg/kg/injection, schedule: Q01DX009 (ip), vehicle: saline",1 of 6
same,survivor count,"dose: 5.0 mg/kg/injection, schedule: Q01DX001 (ip), vehicle: acetone",2 of 6
same,survivor count,"dose: 5.68 mg/kg/injection, schedule: Q01DX009 (ip), vehicle: saline",0 of 6
same,survivor count,"dose: 8.52 mg/kg/injection, schedule: Q01DX009 (ip), vehicle: saline",0 of 6
same,survivor count,"dose: 10.0 mg/kg/injection, schedule: Q01DX001 (ip), vehicle: saline",0 of 6
same,survivor count,"dose: 20.0 mg/kg/injection, schedule: Q01DX001 (ip), vehicle: saline",1 of 6
same,survivor count,"dose: 40.0 mg/kg/injection, schedule: Q01DX001 (ip), vehicle: saline",0 of 6
same,survivor count,[6],0 of 6
same,survivor count,[7],0 of 6
same,survivor count,[8],0 of 6
CCCCNC(=O)c1c(Cl)c(Cl)c(Cl)c(Cl)c1C(=O)O,survivor count,[4],2 of 3
Cc1cc(/C=N/Nc2ccc3cccc(O)c3n2)c(O)c2ncccc12,survivor count,[3],4 of 4
same,survivor count,[9],3 of 4
CC(=O)N/N=C/c1ccc([N+](=O)[O-])s1,survivor count,[10],1 of 6
same,survivor count,[11],5 of 6
CCOc1ccc(NC2=C(OC)C(=O)C(Nc3ccc(OCC)cc3)=C(OC)C2=O)cc1,survivor count,[3],4 of 4
same,survivor count,"dose: 200.0 mg/kg/injection, schedule: Q01DX001 (ip), vehicle: carboxymethylcellulose (CMC)",4 of 4
O=C(Cl)c1ccc(OC(Cl)(Cl)Cl)cc1,survivor count,"dose: 100.0 mg/kg/injection, schedule: Q01DX009 (ip), vehicle: Klucel (hydroxypropylcellulose) (HPC)",6 of 6
O=C(O)C1CC12c1ccccc1-c1ccccc12 (stereo not drawn),survivor count,[5],3 of 6
CNC(=O)NC1C(O)C(OC)OC2COC(c3ccccc3)OC21 (stereo not drawn),survivor count,[11],6 of 6
Nc1cc(N)c(N)cc1N,survivor count,[6],0 of 6
same,survivor count,[7],0 of 6
same,survivor count,[8],0 of 6
Nc1ccc2c(c1)OCO2,T/C,[12],128 % of control
same,survivor count,[12],2 of 6
same,survivor count,"dose: 300.0 mg/kg/injection, schedule: Q04DX003 (sc), vehicle: olive oil, sesame oil, peanut oil",0 of 6
same,survivor count,"dose: 400.0 mg/kg/injection, schedule: Q01DX009 (sc), vehicle: olive oil, sesame oil, peanut oil",1 of 6
O=S1(=O)CC(N2CCCCC2)C1CN1CCCCC1 (stereo not drawn),survivor count,[8],0 of 6
CCOC(=O)C(=O)C(C#N)c1cccc2ccccc12 (stereo not drawn),survivor count,[2],1 of 6
CC(NC(=O)C(N)CSC(c1ccccc1)(c1ccccc1)c1ccccc1)C(=O)O (stereo not drawn),T/C,"dose: 25.0 mg/kg/injection, schedule: Q01DX009 (ip), vehicle: saline",127 % of control
same,T/C,"dose: 50.0 mg/kg/injection, schedule: Q01DX009 (ip), vehicle: other",127 % of control
same,T/C,[13],125 % of control
same,T/C,"dose: 100.0 mg/kg/injection, schedule: Q01DX009 (ip), vehicle: other",142 % of control
same,T/C,"dose: 100.0 mg/kg/injection, schedule: Q01DX009 (ip), vehicle: saline",138 % of control
same,survivor count,"dose: 200.0 mg/kg/injection, schedule: Q01DX009 (ip), vehicle: saline",3 of 6
same,survivor count,"dose: 400.0 mg/kg/injection, schedule: Q01DX009 (ip), vehicle: other",0 of 6
same,survivor count,"dose: 400.0 mg/kg/injection, schedule: Q01DX009 (ip), vehicle: saline",4 of 6
CC(C)C[C@H](O)C(=O)O,T/C,[13],127 % of control
same,survivor count,[14],3 of 6
CCCCCCCCCCCCCC(=O)O (tested in a mixture with another compound),survivor count,[15],0 of 4
same,survivor count,[5],0 of 4
Cc1cccc(NC(=O)CCc2ccc(Cl)cc2)n1,survivor count,[15],3 of 6
same,survivor count,[5],0 of 6
CC(NC(=O)NCCCl)C(O)c1ccccc1 (stereo not drawn),survivor count,[1],6 of 6
same,survivor count,[2],0 of 6
CN(C)CCCN1Cc2ccccc2Cc2ccccc21,survivor count,"dose: 200.0 mg/kg/injection, schedule: Q04DX003 (ip), vehicle: saline",2 of 4
same,survivor count,[14],0 of 4
Cc1ncnc2c1CCC2,survivor count,"dose: 200.0 mg/kg/injection, schedule: Q01DX009 (ip), vehicle: saline with Tween-80",2 of 6
same,survivor count,[11],0 of 6
CC(C)(C)C1COP(=O)(Oc2ccccc2)OC1 (stereo not drawn),survivor count,[9],0 of 6
FC(F)(F)c1ccc2c(c1)N(CCCN1CCN(CCOc3ccccc3)CC1)c1ccccc1S2,T/C,"dose: 12.5 mg/kg/injection, schedule: Q04DX003 (ip), vehicle: saline",126 % of control
same,survivor count,"dose: 25.0 mg/kg/injection, schedule: Q04DX003 (ip), vehicle: saline",6 of 6
same,survivor count,"dose: 50.0 mg/kg/injection, schedule: Q04DX003 (ip), vehicle: saline",3 of 6
same,survivor count,"dose: 100.0 mg/kg/injection, schedule: Q04DX003 (ip), vehicle: saline",0 of 6
OC(c1ccccc1)C(c1ccccc1)C1CO1 (stereo not drawn),survivor count,"dose: 50.0 mg/kg/injection, schedule: Q01DX009 (ip), vehicle: DMSO",6 of 6
same,survivor count,"dose: 100.0 mg/kg/injection, schedule: Q01DX009 (ip), vehicle: DMSO",3 of 6
same,survivor count,"dose: 200.0 mg/kg/injection, schedule: Q01DX009 (ip), vehicle: DMSO",1 of 6
same,survivor count,"dose: 400.0 mg/kg/injection, schedule: Q01DX009 (ip), vehicle: DMSO",0 of 6
O=C(O)c1cccc(CCc2ccccc2)c1,survivor count,[16],1 of 6
NC1(C(=O)O)C2CC3CC(C2)CC1C3 (stereo not drawn),survivor count,"dose: 400.0 mg/kg/injection, schedule: Q04DX003 (ip), vehicle: alcohol",6 of 6
CCOC(C(=O)OC1CCN(C)CC1)(c1ccccc1)c1ccccc1,survivor count,[10],1 of 6
same,survivor count,[11],0 of 6
CCOC(=O)C(CCC(=O)O)NC(=O)OCc1ccccc1 (stereo not drawn),survivor count,[1],0 of 6
same,survivor count,"dose: 400.0 mg/kg/injection, schedule: Q01DX009 (ip), vehicle: Klucel (hydroxypropylcellulose) (HPC)",0 of 6
same,survivor count,[2],0 of 6
Cc1cc(C)c(N)c(Br)c1,survivor count,"dose: 100.0 mg/kg/injection, schedule: Q01DX009 (ip), vehicle: saline with Tween-80",5 of 6
same,survivor count,[1],3 of 6
same,survivor count,[10],1 of 6
same,survivor count,[16],0 of 6
same,survivor count,[2],4 of 6
same,survivor count,[11],0 of 6

# — PubChem BioAssay AID248 (DTP/NCI, 2004)
